Experiment [1] has as its target T1, Nrd1-TAP (S. cerevisiae (strains isogenic to BY4741)) (UniProt P53617).
T1 sequence: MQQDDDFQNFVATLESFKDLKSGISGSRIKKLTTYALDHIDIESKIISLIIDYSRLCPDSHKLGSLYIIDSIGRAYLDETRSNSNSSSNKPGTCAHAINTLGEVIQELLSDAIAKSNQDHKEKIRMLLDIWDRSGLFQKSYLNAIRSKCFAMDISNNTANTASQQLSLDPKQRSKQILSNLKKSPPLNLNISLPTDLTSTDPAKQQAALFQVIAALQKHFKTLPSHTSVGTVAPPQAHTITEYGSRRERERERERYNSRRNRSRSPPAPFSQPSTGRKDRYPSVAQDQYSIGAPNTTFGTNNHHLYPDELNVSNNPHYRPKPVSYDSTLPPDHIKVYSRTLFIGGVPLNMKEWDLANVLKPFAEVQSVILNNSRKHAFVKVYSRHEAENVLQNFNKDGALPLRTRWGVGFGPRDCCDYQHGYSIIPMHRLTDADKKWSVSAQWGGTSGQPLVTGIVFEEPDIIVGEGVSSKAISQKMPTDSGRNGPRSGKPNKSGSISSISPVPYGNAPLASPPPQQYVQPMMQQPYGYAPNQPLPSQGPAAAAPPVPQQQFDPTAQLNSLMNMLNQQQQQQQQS
The experiment is described as follows: affinity purification with mass spectrometry; Tandem Affinity Purification (TAP) of the TAP-tagged bait from yeast lysate of WT or rtr1Δ cells (TAP lysis buffer: 40mM Hepes-KOH pH 7.5, 10% glycerol, 100mM NaCl, 0.1% Tween-20; lysate treated with DNase I and heparin); MudPIT-LC/MS/MS; SAINT probability and prey-prey correlation, n = 4 biological replicates per genotype.

Chains of the proteins cited; added tags and fusions are not shown.
UniProt P53538: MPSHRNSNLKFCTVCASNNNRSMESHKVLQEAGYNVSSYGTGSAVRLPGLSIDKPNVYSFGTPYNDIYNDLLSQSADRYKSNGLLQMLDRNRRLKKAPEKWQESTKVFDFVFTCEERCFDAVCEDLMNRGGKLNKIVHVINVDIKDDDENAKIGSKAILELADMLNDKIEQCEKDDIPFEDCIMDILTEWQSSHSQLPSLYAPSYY
UniProt P39081: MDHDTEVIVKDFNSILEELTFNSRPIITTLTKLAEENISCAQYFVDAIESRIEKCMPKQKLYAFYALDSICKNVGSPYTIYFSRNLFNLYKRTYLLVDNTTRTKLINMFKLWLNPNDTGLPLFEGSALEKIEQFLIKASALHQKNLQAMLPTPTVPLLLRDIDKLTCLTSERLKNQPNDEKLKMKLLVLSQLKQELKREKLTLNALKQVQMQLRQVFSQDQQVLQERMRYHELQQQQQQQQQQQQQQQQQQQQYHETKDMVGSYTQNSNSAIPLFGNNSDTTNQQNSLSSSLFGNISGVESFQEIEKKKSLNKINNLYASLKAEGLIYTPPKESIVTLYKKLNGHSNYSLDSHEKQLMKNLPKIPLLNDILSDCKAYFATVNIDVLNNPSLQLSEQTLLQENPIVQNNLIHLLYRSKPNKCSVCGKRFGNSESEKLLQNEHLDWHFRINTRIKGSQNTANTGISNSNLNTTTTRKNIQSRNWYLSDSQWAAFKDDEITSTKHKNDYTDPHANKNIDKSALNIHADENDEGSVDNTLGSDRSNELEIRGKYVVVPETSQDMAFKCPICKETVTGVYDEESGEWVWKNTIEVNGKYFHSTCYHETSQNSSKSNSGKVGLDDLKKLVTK
UniProt P04050: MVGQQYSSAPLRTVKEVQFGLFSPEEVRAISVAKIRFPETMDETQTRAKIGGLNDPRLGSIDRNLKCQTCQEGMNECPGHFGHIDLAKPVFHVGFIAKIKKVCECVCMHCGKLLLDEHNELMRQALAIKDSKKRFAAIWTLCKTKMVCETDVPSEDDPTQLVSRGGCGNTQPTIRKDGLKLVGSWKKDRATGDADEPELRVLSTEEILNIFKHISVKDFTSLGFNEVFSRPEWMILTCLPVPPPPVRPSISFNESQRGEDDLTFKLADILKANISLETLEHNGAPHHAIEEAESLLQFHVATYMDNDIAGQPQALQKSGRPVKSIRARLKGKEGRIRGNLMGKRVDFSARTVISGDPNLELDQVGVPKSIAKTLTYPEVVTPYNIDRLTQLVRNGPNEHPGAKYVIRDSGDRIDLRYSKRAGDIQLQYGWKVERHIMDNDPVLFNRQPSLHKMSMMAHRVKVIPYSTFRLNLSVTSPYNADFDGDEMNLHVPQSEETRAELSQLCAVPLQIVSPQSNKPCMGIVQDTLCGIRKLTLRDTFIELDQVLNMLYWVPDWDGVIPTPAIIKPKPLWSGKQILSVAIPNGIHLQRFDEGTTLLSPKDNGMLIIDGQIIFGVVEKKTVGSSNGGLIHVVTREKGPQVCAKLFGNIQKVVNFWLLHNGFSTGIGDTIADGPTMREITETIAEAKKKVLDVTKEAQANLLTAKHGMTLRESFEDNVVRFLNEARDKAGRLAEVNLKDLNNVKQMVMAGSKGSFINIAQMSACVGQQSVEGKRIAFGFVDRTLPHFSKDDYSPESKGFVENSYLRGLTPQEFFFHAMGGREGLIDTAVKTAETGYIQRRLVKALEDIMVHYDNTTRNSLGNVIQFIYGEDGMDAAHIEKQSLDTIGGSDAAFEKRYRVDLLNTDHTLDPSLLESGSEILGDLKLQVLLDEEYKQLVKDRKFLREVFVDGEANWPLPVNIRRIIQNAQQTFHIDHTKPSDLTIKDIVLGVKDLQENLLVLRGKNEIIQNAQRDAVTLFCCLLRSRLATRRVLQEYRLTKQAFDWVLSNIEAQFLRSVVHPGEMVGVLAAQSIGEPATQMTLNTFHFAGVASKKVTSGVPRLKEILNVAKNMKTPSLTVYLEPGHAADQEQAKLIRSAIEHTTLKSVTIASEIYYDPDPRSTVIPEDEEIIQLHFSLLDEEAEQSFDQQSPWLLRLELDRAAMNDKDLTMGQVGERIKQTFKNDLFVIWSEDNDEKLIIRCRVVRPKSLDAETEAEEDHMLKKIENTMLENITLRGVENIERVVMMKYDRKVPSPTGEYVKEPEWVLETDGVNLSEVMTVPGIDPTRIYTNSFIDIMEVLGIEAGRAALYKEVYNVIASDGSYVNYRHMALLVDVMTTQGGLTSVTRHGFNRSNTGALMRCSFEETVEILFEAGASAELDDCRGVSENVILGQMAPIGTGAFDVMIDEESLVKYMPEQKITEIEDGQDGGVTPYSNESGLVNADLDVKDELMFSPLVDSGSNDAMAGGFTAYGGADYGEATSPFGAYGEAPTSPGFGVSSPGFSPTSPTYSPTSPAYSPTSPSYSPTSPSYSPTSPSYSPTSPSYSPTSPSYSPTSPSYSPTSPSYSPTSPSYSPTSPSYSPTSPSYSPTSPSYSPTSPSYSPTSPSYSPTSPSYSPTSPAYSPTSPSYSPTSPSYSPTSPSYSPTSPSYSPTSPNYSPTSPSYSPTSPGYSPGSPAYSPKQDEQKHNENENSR
UniProt P08518: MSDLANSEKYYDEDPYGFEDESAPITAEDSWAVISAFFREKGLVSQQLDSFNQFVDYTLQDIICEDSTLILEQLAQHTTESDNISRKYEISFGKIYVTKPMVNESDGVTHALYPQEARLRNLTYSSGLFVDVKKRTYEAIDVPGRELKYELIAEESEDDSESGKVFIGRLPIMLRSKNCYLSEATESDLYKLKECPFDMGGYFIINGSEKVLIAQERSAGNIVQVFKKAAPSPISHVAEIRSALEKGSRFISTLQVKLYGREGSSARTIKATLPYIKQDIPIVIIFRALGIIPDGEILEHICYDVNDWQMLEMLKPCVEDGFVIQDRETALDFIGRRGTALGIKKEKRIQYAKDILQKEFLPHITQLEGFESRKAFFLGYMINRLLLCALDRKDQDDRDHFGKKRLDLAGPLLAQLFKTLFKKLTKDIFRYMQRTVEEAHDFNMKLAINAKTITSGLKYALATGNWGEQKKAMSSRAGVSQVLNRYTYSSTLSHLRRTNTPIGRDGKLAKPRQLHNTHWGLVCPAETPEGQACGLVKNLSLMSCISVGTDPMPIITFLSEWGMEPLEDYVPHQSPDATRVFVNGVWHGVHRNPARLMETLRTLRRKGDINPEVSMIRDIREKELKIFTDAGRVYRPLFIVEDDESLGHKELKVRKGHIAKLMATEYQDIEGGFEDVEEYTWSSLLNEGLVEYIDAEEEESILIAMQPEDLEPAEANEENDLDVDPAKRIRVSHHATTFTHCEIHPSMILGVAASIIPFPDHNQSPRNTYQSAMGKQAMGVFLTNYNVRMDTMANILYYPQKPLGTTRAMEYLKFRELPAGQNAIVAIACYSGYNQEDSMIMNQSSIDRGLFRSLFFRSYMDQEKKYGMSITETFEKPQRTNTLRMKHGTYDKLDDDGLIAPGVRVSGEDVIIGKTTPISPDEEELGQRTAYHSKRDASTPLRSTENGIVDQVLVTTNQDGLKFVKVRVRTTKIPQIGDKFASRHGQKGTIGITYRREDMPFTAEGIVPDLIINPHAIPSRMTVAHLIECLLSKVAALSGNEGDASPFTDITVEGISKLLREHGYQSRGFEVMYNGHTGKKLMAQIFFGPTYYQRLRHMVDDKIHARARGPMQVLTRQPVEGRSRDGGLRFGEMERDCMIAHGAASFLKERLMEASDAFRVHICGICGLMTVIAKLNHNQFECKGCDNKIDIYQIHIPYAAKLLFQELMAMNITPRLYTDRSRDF
UniProt P29468: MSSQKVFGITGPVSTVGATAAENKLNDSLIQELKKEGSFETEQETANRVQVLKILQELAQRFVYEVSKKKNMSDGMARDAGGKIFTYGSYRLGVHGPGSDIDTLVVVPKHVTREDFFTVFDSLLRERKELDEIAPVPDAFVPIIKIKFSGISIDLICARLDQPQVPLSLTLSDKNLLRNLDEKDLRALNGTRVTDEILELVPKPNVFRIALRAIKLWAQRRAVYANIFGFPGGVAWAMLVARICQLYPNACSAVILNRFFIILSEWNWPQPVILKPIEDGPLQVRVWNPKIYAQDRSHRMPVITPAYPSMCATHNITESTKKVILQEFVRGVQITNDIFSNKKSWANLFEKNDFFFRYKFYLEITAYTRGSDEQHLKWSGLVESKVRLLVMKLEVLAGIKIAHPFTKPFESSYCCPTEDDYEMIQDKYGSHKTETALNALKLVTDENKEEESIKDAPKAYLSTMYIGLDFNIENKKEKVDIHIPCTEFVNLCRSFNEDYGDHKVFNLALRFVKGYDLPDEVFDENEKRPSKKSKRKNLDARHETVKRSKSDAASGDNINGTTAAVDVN
UniProt Q00416: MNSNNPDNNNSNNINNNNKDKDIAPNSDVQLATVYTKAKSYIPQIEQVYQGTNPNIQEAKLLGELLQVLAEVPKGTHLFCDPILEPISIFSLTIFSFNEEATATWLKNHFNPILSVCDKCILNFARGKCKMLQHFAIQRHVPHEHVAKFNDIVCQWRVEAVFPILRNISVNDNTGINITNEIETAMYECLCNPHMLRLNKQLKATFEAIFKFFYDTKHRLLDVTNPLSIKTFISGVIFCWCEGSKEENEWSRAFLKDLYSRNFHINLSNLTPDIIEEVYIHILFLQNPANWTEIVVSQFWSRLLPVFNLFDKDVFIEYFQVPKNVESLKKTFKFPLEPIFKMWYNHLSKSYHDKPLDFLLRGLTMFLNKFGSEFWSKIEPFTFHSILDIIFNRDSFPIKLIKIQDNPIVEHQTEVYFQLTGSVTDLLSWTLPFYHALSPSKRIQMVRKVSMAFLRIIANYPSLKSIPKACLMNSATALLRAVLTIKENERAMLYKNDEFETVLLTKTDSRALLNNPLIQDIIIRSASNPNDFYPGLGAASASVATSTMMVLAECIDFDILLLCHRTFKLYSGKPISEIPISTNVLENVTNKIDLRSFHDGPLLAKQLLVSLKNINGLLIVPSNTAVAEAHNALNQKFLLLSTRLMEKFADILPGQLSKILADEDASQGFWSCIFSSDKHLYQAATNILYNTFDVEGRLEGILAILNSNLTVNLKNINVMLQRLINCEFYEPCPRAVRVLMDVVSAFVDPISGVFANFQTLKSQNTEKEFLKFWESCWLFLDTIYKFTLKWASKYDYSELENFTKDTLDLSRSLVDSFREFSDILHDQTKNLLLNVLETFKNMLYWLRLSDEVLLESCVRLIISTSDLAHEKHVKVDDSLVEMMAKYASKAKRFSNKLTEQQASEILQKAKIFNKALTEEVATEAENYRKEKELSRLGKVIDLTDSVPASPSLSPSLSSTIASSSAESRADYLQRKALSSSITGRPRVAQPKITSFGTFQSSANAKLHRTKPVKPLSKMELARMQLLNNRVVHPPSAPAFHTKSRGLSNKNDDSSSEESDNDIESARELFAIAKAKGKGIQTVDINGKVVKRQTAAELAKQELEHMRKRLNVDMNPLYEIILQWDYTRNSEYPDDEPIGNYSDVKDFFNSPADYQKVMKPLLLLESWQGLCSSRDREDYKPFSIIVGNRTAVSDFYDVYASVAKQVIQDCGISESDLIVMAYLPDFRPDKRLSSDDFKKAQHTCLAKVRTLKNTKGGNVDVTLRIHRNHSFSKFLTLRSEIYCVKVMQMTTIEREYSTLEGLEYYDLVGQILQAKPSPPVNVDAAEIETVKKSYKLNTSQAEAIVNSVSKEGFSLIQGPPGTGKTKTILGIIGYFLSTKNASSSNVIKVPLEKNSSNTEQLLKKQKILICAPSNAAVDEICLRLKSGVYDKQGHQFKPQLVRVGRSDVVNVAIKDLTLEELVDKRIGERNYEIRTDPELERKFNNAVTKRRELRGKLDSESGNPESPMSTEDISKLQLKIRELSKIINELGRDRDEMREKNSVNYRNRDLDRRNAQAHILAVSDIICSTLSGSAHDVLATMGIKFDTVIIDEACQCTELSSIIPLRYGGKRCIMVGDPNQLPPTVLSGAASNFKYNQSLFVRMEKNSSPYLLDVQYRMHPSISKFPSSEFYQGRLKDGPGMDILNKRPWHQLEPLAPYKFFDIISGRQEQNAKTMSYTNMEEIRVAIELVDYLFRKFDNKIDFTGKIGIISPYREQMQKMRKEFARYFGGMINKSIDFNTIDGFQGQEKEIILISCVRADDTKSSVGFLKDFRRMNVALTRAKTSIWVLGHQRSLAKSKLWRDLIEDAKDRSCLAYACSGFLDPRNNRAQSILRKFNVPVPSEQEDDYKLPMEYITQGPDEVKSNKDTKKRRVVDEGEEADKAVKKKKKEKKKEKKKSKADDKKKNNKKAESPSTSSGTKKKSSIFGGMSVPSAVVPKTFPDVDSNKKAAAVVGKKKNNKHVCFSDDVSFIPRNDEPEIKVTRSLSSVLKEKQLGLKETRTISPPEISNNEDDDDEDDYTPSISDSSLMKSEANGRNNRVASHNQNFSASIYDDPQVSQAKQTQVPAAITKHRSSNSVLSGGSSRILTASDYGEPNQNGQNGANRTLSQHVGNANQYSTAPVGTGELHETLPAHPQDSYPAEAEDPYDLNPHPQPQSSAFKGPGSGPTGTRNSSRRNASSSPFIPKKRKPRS

Experiment [2] has as its target Ssu72-FLAG (S. cerevisiae (strains isogenic to BY4741)) (UniProt P53538). The experiment is described as follows: affinity purification with mass spectrometry; single-step purification of the FLAG-tagged bait on anti-FLAG agarose (4°C overnight) from yeast lysate of WT or rtr1Δ cells, on-bead trypsin digestion; MudPIT-LC/MS/MS; SAINT probability and prey-prey correlation, n = 4 biological replicates per genotype.

Experiment [3] addresses Pcf11-TAP (S. cerevisiae (strains isogenic to BY4741)) (UniProt P39081). The experiment is described as follows: affinity purification with mass spectrometry; Pcf11 purifications from rtr1Δ cells only (cells lacking the CTD phosphatase Rtr1); MudPIT-LC/MS/MS; SAINT probability and prey-prey correlation.
For experiment [4] the target is unchanged. The experiment is described as follows: affinity purification with mass spectrometry; Tandem Affinity Purification (TAP) of the TAP-tagged bait from yeast lysate of WT or rtr1Δ cells (TAP lysis buffer: 40mM Hepes-KOH pH 7.5, 10% glycerol, 100mM NaCl, 0.1% Tween-20; lysate treated with DNase I and heparin); MudPIT-LC/MS/MS; SAINT probability and prey-prey correlation, n = 4 biological replicates per genotype.

Experiment [5] concerns the target Pcf11-FLAG (S. cerevisiae (strains isogenic to BY4741)) (UniProt P39081). As to the kind of experiment: affinity purification with mass spectrometry; single-step purification of the FLAG-tagged bait on anti-FLAG agarose (4°C overnight) from yeast lysate of WT or rtr1Δ cells, on-bead trypsin digestion; MudPIT-LC/MS/MS; SAINT probability and prey-prey correlation, n = 4 biological replicates per genotype.

Experiment [6] concerns the target Pcf11-TAP (S. cerevisiae (strains isogenic to BY4741)) (UniProt P39081). The experiment is described as follows: affinity purification with mass spectrometry; Tandem Affinity Purification (TAP) of the TAP-tagged bait from yeast lysate of WT or rtr1Δ cells (TAP lysis buffer: 40mM Hepes-KOH pH 7.5, 10% glycerol, 100mM NaCl, 0.1% Tween-20; lysate treated with DNase I and heparin); MudPIT-LC/MS/MS; SAINT probability and prey-prey correlation, n = 4 biological replicates per genotype. The source holds these as a separate data set.

Experiment [7] has as its target T1, Nrd1-TAP (S. cerevisiae (strains isogenic to BY4741)). The experiment is described as above. The source holds these as a separate data set.

Here are results for 11 molecules from paper PMC7105142.

Like-named read-outs stand apart in the source and are kept apart here. No constants are given. Whether binding was seen depends on the method and setting. In cells and extracts the contact can be indirect. Here binding means that the protein was enriched with, or labelled near, the bait; the list need not be complete. For some assays here: No binding means not detected with the bait.

Rpb1 (from UniProt P04050 1-1733): the binding result in experiment [1] and in experiment [2] was “binds” each time.
Turning to Rpb2 (from UniProt P08518 1-1224), the binding result is reported as “no binding (only cells lacking Rtr1 (rtr1Δ))” in experiment [3], “binds” in experiment [4] and “binds” in experiment [2].
As for Sto1 (from UniProt P34160 1-861), the binding result in experiment [1] is recorded as “binds”.
As for Pap1 (from UniProt P29468 1-568), the binding result in experiment [5] was “binds”.
In the case of Sen1 (from UniProt Q00416 1-2231), in experiment [1], the binding entry is given as “binds”.
Same read-out and setting: next, Cbc2 (from UniProt Q08920 1-208): “binds”.

B1: Rna15 (protein, UniProt P25299 1-296)
chain: MNRQSGVNAGVQNNPPSRVVYLGSIPYDQTEEQILDLCSNVGPVINLKMMFDPQTGRSKGYAFIEFRDLESSASAVRNLNGYQLGSRFLKCGYSSNSDISGVSQQQQQQYNNINGNNNNNGNNNNNSNGPDFQNSGNANFLSQKFPELPSGIDVNINMTTPAMMISSELAKKPKEVQLKFLQKFQEWTRAHPEDAVSLLELCPQLSFVTAELLLTNGICKVDDLIPLASRPQEEASATNNNSVNEVVDPAVLNKQKELLKQVLQLNDSQISILPDDERMAIWDLKQKALRGEFGAF
As to B1, the binding entry in experiment [6] and in experiment [5] was “binds” each time.

B2: Rna14 (protein, UniProt P25298 1-677)
chain: MSSSTTPDLLYPSADKVAEPSDNIHGDELRLRERIKDNPTNILSYFQLIQYLETQESYAKVREVYEQFHNTFPFYSPAWTLQLKGELARDEFETVEKILAQCLSGKLENNDLSLWSTYLDYIRRKNNLITGGQEARAVIVKAFQLVMQKCAIFEPKSSSFWNEYLNFLEQWKPFNKWEEQQRIDMLREFYKKMLCVPFDNLEKMWNRYTQWEQEINSLTARKFIGELSAEYMKARSLYQEWLNVTNGLKRASPINLRTANKKNIPQPGTSDSNIQQLQIWLNWIKWERENKLMLSEDMLSQRISYVYKQGIQYMIFSAEMWYDYSMYISENSDRQNILYTALLANPDSPSLTFKLSECYELDNDSESVSNCFDKCTQTLLSQYKKIASDVNSGEDNNTEYEQELLYKQREKLTFVFCVYMNTMKRISGLSAARTVFGKCRKLKRILTHDVYVENAYLEFQNQNDYKTAFKVLELGLKYFQNDGVYINKYLDFLIFLNKDSQIKTLFETSVEKVQDLTQLKEIYKKMISYESKFGNLNNVYSLEKRFFERFPQENLIEVFTSRYQIQNSNLIKKLELTYMYNEEEDSYFSSGNGDGHHGSYNMSSSDRKRLMEETGNNGNFSNKKFKRDSELPTEVLDLLSVIPKRQYFNTNLLDAQKLVNFLNDQVEIPTVESTKSG
Take B2: the binding result in experiment [6] and in experiment [5] was “binds” each time.

B3: Clp1 (protein, UniProt Q08685 1-445)
chain: MASLPGIDEHTTSEELITGDNEWHKLVIPKGSDWQIDLKAEGKLIVKVNSGIVEIFGTELAVDDEYTFQNWKFPIYAVEETELLWKCPDLTTNTITVKPNHTMKYIYNLHFMLEKIRMSNFEGPRVVIVGGSQTGKTSLSRTLCSYALKFNAYQPLYINLDPQQPIFTVPGCISATPISDILDAQLPTWGQSLTSGATLLHNKQPMVKNFGLERINENKDLYLECISQLGQVVGQRLHLDPQVRRSGCIVDTPSISQLDENLAELHHIIEKLNVNIMLVLCSETDPLWEKVKKTFGPELGNNNIFFIPKLDGVSAVDDVYKRSLQRTSIREYFYGSLDTALSPYAIGVDYEDLTIWKPSNVFDNEVGRVELFPVTITPSNLQHAIIAITFAERRADQATVIKSPILGFALITEVNEKRRKLRVLLPVPGRLPSKAMILTSYRYLE
With B3, the binding result in experiment [6] and in experiment [5] was “binds” in each case.

B4: Fip1 (protein, UniProt P45976 1-327)
chain: MSSSEDEDDKFLYGSDSELALPSSKRSRDDEADAGASSNPDIVKRQKFDSPVEETPATARDDRSDEDIYSDSSDDDSDSDLEVIISLGPDPTRLDAKLLDSYSTAATSSSKDVISVATDVSNTITKTSDERLITEGEANQGVTATTVKATESDGNVPKAMTGSIDLDKEGIFDSVGITTIDPEVLKEKPWRQPGANLSDYFNYGFNEFTWMEYLHRQEKLQQDYNPRRILMGLLSLQQQGKLNSANDTDSNLGNIIDNNNNVNNANMSNLNSNMGNSMSGTPNPPAPPMHPSFPPLPMFGSFPPFPMPGMMPPMNQQPNQNQNQNSK
As to B4, the binding entry in experiment [5] is on record as “binds”.

B5: Nab3 (protein, UniProt P38996 1-802)
chain: MSDENHNSDVQDIPSPELSVDSNSNENELMNNSSADDGIEFDAPEEEREAEREEENEEQHELEDVNDEEEEDKEEKGEENGEVINTEEEEEEEHQQKGGNDDDDDDNEEEEEEEEDDDDDDDDDDDDEEEEEEEEEEGNDNSSVGSDSAAEDGEDEEDKKDKTKDKEVELRRETLEKEQKDVDEAIKKITREENDNTHFPTNMENVNYDLLQKQVKYIMDSNMLNLPQFQHLPQEEKMSAILAMLNSNSDTALSVPPHDSTISTTASASATSGARSNDQRKPPLSDAQRRMRFPRADLSKPITEEEHDRYAAYLHGENKITEMHNIPPKSRLFIGNLPLKNVSKEDLFRIFSPYGHIMQINIKNAFGFIQFDNPQSVRDAIECESQEMNFGKKLILEVSSSNARPQFDHGDHGTNSSSTFISSAKRPFQTESGDMYNDDNGAGYKKSRRHTVSCNIFVKRTADRTYAIEVFNRFRDGTGLETDMIFLKPRMELGKLINDAAYNGVWGVVLVNKTHNVDVQTFYKGSQGETKFDEYISISADDAVAIFNNIKNNRNNSRPTDYRAMSHQQNIYGAPPLPVPNGPAVGPPPQTNYYQGYSMPPPQQQQQQPYGNYGMPPPSHDQGYGSQPPIPMNQSYGRYQTSIPPPPPQQQIPQGYGRYQAGPPPQPPSQTPMDQQQLLSAIQNLPPNVVSNLLSMAQQQQQQPHAQQQLVGLIQSMQGQAPQQQQQQLGGYSSMNSSSPPPMSTNYNGQNISAKPSAPPMSHQPPPPQQQQQQQQQQQQQQQQPAGNNVQSLLDSLAKLQK
On to B5, for which the binding entry in experiment [7] is on record as “binds”.
